According to US5536648:
The exact form of at least one protein or probe is not confirmed.

Chains of the proteins cited; added tags and fusions are not shown. A line that says so, or that is headed by a name, gives the form on record, which may keep a tag or linker.
GST-GCN4 3.12 (partial GCN4 including C-terminal DNA-binding region) (Saccharomyces cerevisiae), one chain, as listed by the source: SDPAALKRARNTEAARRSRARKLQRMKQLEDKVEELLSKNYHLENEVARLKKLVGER

Tested on: GST-GCN4 3.12 (partial GCN4 including C-terminal DNA-binding region) (Saccharomyces cerevisiae)
Assay: EMSA
Settings: no blocking DNA; 7.5% polyacrylamide gel; purified recombinant protein; label: 32P-dATP

“CCACCTAGCGGATGACTCATTTTTTTTCTTAGCG / CGCTAAGAAAAAAAATGAGTC [GCN4 site gel-retardation probe]”: binds.
